# Measured values published in paper PMC12670160, “A drug-repurposing screen of FDA- and EMA-approved drugs identifies two NF-κB inhibitors active against eumycetoma” (Journal of Antimicrobial Chemotherapy, 2025).
# Counter-ions that a name gives are not always drawn. Screen size: about 5,300 compounds; about 130 (2.5%) showed an effect of 50% or more. The list shows a part of the results.
# System: M. mycetomatis strain mm55
# Settings: primary screen, metabolic activity vs growth control; 96 h, 2 µM; inhibitor
row,SMILES,% viability [%]
1,"c1ccc2cc(C3=NCCN3)ncc2c1 [ONC0001503, bu226]",91.26
2,"CN([C@@H](Cc1ccc(OS(=O)(=O)c2cccc3cnccc23)cc1)C(=O)N1CCN(c2ccccc2)CC1)S(=O)(=O)c1cccc2cnccc12 [ONC0002232, kn62]",73.7
3,"C[N@+]12CCCC[C@@H]1CCC(=C(c1cccs1)c1cccs1)C2 (racemic) [ONC0003394, tiquizium bromide]",60.31
4,"CCn1c(=O)c2c(nc(/C=C/c3ccc(OC)c(OC)c3)n2C)n(CC)c1=O [ONC0004283, istradefylline]",93.8
5,"CNC(=O)c1c(F)cccc1Nc1nc(Nc2cc3c(cc2OC)CCN3C(=O)CN(C)C)nc2[nH]ccc12 [ONC0002603, gsk1838705a]",70.17
6,CC(=O)SCCC(=O)N1C(C)CCCC1C(=O)O (centres unmarked) [ONC0002902],60.17
7,"Nc1nc2c(cnn2CCc2ccccc2)c2nc(-c3ccco3)nn12 [ONC0003530, sch58261]",82.98
8,"CCC(C)CC(C)CCCCCCCCC(=O)N[C@H]1C[C@@H](O)[C@@H](NCCN)NC(=O)[C@@H]2[C@@H](O)CCN2C(=O)[C@H]([C@H](O)CCN)NC(=O)[C@H]([C@@H](O)[C@H](O)c2ccc(O)cc2)NC(=O)[C@@H]2C[C@@H](O)CN2C(=O)[C@H]([C@@H](C)O)NC1=O (some centres unmarked) [ONC0002201, caspofungin acetate]",69.7
9,"Cc1c(N)c(=O)n(-c2ccccc2)n1C [ONC0002326, ampyrone]",72.67
10,"O=C(O)c1ccc[n+]([O-])c1 [ONC0005291, oxiniacic acid]",104
11,"C=CCOc1ccccc1OCC(O)CNC(C)C (centres unmarked) [ONC0004148, oxprenolol]",68.93
12,"NC[C@H]1O[C@H](O[C@H]2[C@H](O)[C@@H](O[C@H]3O[C@H](CO)[C@@H](O)[C@H](N)[C@H]3O)[C@H](N)C[C@@H]2N)[C@H](N)C[C@@H]1O [ONC0000534, tobramycin]",98.2
13,"O=C(/C=C/c1cccc(S(=O)(=O)Nc2ccccc2)c1)NO [ONC0004737, belinostat pxd101]",105.3
14,"CC1(C)Cc2c(-c3ccccc3)c(-c3ccc(Cl)cc3)c(CC(=O)O)n2C1 [ONC0004646, licofelone]",64.95
15,"CC(C)(C)c1cc(NC(=O)Nc2ccc(-c3cn4c(n3)sc3cc(OCCN5CCOCC5)ccc34)cc2)no1 [ONC0005094, quizartinib ac220]",95.94
16,"CN1CCN(c2ccc(-c3cccc(CN4CCOCC4)c3)cc2NC(=O)c2c[nH]c(=O)cc2C(F)(F)F)CC1 [ONC0003596, oicr9429]",102.7
17,"CC(=O)N[C@H](Cc1c[nH]c2ccccc12)C(=O)OCc1cc(C(F)(F)F)cc(C(F)(F)F)c1 [ONC0002674, l732138]",67.52
18,"CCOC(=O)/C=C(C)/C=C/C=C(C)/C=C/c1c(C)cc(OC)c(C)c1C [ONC0001040, etretinate]",82.26
19,"CCOC(=O)Nc1nc2ccccc2[nH]1 [ONC0004223, lobendazole]",137.9
20,"CN1CCN(c2ccc(/C=C(\C#N)c3ccccc3Br)cc2)CC1 [ONC0002643, dg172]",54.89

# Single values from the entries so far.
# Value of CC(=O)N[C@H](Cc1c[nH]c2ccccc12)C(=O)OCc1cc(C(F)(F)F)cc(C(F)(F)F)c1 [ONC0002674, l732138] under % viability [%]: 67.52
# Value of c1ccc2cc(C3=NCCN3)ncc2c1 [ONC0001503, bu226] under % viability [%]: 91.26
# Value of CC1(C)Cc2c(-c3ccccc3)c(-c3ccc(Cl)cc3)c(CC(=O)O)n2C1 [ONC0004646, licofelone] under % viability [%]: 64.95
# Value of O=C(O)c1ccc[n+]([O-])c1 [ONC0005291, oxiniacic acid] under % viability [%]: 104
# Value of CCOC(=O)Nc1nc2ccccc2[nH]1 [ONC0004223, lobendazole] under % viability [%]: 137.9

# The list goes on.

row,SMILES,% viability [%]
1,"CNC(=O)c1ccc2c(c1)S(=O)(=O)c1ccccc1C2=O [ONC0002375, bw616u]",76.21
2,"CCS(=O)(=O)N1CCC[C@@H]2CN3CCc4cc(OC)ccc4[C@@H]3C[C@@H]21 [ONC0002617, rs79948]",85.43
3,"O=C(CCc1ccncc1)NNC(=O)N1Cc2ccccc2Oc2ccc(Cl)cc21 [ONC0001679, sc51089]",66.58
4,"N#[N+]/C=C(\[O-])CC[C@H](N)C(=O)O [ONC0002763, 6diazo5oxolnorleucine]",81.17
5,"CC(C)(CCCCCCCCCCC(C)(C)CC(=O)O)CC(=O)O [ONC0005311, medica16]",99.04
6,"Cc1nccc2[nH]c(=O)ccc12 [ONC0001963, medorinone]",84.27
7,"O=c1c(O)c(-c2ccc(O)cc2)oc2cc(O)cc(O)c12 [ONC0000144, kaempferol]",93.65
8,"C#C[C@]1(O)CC[C@H]2[C@@H]3CCC4=CC(=O)CCC4=C3C=C[C@@]21CC [ONC0002306, gestrinone]",80.57
9,"NC[C@@](O)(c1ccc(Cl)cc1)c1ccc(-c2cn[nH]c2)cc1 [ONC0004493, at13148]",60.66
10,"CC1(C)Oc2ccc(C#N)cc2[C@H](N(Cc2ncc[nH]2)c2ccc(Cl)cc2)[C@H]1O [ONC0001872, bms191095]",47.09
11,"N#C/C(=C(/N)Sc1ccc(N)cc1)c1ccccc1C(F)(F)F [ONC0004419, mek12inhibitor]",139.3
12,"COc1cc2nc(N3CCN(C(=O)C4COc5ccccc5O4)CC3)nc(N)c2cc1OC (centres unmarked) [ONC0005340, doxazosin mesylate]",111.1
13,"COc1cc(OC)c(NC(=O)Nc2cc(C)on2)cc1Cl [ONC0001373, pnu120596]",123.3
14,"CCCCC1C(=O)N(c2ccccc2)N(c2ccc(O)cc2)C1=O (centres unmarked) [ONC0000579, oxyphenbutazone]",88.33
15,"O=C(O)C1=CCCN(CCOC(c2ccc(C(F)(F)F)cc2)c2ccc(C(F)(F)F)cc2)C1 [ONC0000220, ci966]",72.93
16,"O=C(CCBr)N1CCN(C(=O)CCBr)CC1 [ONC0002434, pipobroman]",85.12
17,"Cc1cc(NC(=O)NCCN2CCC(O)(Cc3ccccc3)CC2)c2ccccc2n1 [ONC0001367, palosuran]",77.55
18,"CCN(CC)C(=O)Nc1ccc(OCC(O)CNC(C)(C)C)c(C(C)=O)c1 (centres unmarked) [ONC0002160, celiprolol]",87.56
19,"O[C@H]([C@H](O)[C@@H]1CO1)[C@H]1CO1 [ONC0001201, val083]",107
20,"CCN(CC)CCOCCOC(=O)C1(c2ccccc2)CCCC1 [ONC0000642, carbetapentane citrate]",140.3

row,SMILES,% viability [%]
1,"CC(C)C[C@@H](NC(=O)OCC1c2ccccc2-c2ccccc21)C(=O)O [ONC0003062, npc15199]",87.63
2,"COc1ccc(Oc2c(Cl)cnn(C3c4ccccc4-c4ccccc43)c2=O)cc1 [ONC0000259, cym50769]",100.2
3,"CC#CCn1c(N2CCC[C@@H](N)C2)nc2c1c(=O)n(Cc1nc(C)c3ccccc3n1)c(=O)n2C [ONC0002395, linagliptin]",96.9
4,"C=C[C@@H]1C2=CCOC(=O)C2=CO[C@H]1O[C@@H]1O[C@H](CO)[C@@H](O)[C@H](O)[C@H]1O [ONC0005538, gentiopicrin]",86.38
5,"CCOC(=O)c1ccc(N(C)c2csc(-c3ccccc3)n2)cc1 [ONC0001341, neuropathiazol]",82.26
6,"CCC(C)[C@H]1O[C@]2(C=C[C@@H]1C)C[C@@H]1C[C@@H](C/C=C(\C)[C@@H](OC3C[C@H](OC)C(O[C@H]4C[C@H](OC)[C@@H](O)[C@H](C)O4)[C@H](C)O3)[C@@H](C)/C=C/C=C3\CO[C@@H]4[C@H](O)C(C)=C[C@@H](C(=O)O1)[C@]34O)O2 (some centres unmarked) [ONC0004110, abamectin avermectin b1a shown]",109.8
7,"O=P(O)(O)C(O)(Cn1ccnc1)P(=O)(O)O [ONC0005272, zoledronic acid zoledronate]",116.2
8,"COC(=O)[C@H](CC(C)C)NC(=O)c1ccc(NC[C@@H](N)CS)cc1-c1cccc2ccccc12 [ONC0002283, ggti298]",81.53
9,"CC(C)(CO)[C@@H](O)C(=O)NCCC(=O)O [ONC0004104, pantothenic acidd na salt]",122.7
10,"c1ccc(Cn2c(-c3ccc(OC[C@H](C4CCNCC4)n4c(-c5ccccc5)nc5ccccc54)cc3)nc3ccccc32)cc1 [ONC0001286, deltarasin]",89.93
11,"O=C(Nc1cnc(Cl)nc1)c1ccc(F)c(F)c1 [ONC0001921, ica069673]",29.87
12,"CCN(CCCCOC(=O)c1ccc(OC)c(OC)c1)C(C)Cc1ccc(OC)cc1 (centres unmarked) [ONC0000662, mebeverine hydrochloride]",77.36
13,"COc1cc(NC(=O)c2ccccn2)ccc1Cl [ONC0000075, vu0361737]",122.2
14,"Cc1cc(C(C)(C)C)cc(C)c1CC1=NCCN1 [ONC0003456, xylometazoline hydrochloride]",64.58
15,"CCN(CC)C(=O)C1(c2ccccc2)CC1CN (centres unmarked) [ONC0004259, milnacipran hydrochloride]",81.75
16,"CN1CCC2=C(C1)c1ccccc1Cc1ccccc12 [ONC0005445, setiptiline]",113.1
17,"C[C@]12C=CC(=O)N[C@@H]1CC[C@@H]1[C@@H]2CC[C@]2(C)[C@@H](C(=O)Nc3cc(C(F)(F)F)ccc3C(F)(F)F)CC[C@@H]12 [ONC0004626, dutasteride]",85.92
18,"O=C1[C@H]2CCCC[C@H]2C(=O)N1CCCCN1CCN(c2nsc3ccccc23)CC1 [ONC0003349, perospirone]",82.07
19,"CC(C)c1cccc2c(-c3ccccc3)cc(-c3ccc(-c4ccc(C(=O)O)cc4)[nH]3)nc12 [ONC0001488, er50891]",51.81
